No constants are given. Whether binding was seen depends on the method and setting. In cells and extracts the contact can be indirect. A yes stands for co-enrichment or nearness to the bait. Other partners may have been found.
Columns and labels:
Experiment in all cases: affinity purification with mass spectrometry
[1] = biological target: T1, ARHGAP12 (not stated (library cDNAs: human, mouse, rat or chimpanzee; Table S1)) (UniProt Q8IWW6)
T1 sequence: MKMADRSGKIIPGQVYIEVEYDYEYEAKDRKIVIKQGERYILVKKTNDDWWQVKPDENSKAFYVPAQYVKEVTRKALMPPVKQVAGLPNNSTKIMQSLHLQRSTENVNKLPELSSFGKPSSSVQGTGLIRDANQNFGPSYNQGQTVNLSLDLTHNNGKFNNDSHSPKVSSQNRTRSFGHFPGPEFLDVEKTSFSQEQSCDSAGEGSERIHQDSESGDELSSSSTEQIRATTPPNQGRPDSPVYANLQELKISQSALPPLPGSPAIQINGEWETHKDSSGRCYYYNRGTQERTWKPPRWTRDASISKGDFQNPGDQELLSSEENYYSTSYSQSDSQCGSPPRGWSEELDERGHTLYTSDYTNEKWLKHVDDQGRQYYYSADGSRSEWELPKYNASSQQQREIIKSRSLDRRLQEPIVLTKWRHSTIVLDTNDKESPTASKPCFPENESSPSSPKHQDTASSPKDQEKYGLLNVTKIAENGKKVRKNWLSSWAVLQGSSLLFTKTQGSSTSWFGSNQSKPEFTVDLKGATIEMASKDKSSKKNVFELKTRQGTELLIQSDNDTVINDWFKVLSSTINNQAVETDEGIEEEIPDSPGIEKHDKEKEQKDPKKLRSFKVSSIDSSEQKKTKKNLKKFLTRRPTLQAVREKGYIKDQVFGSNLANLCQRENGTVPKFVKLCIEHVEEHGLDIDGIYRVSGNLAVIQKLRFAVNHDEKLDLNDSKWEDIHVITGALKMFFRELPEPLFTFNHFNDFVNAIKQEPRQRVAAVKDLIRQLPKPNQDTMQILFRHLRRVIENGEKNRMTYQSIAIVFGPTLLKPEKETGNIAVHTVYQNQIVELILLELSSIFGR

Sequences of proteins named here, by UniProt entry; tags and fusion partners are left off.
UniProt Q9C0H5: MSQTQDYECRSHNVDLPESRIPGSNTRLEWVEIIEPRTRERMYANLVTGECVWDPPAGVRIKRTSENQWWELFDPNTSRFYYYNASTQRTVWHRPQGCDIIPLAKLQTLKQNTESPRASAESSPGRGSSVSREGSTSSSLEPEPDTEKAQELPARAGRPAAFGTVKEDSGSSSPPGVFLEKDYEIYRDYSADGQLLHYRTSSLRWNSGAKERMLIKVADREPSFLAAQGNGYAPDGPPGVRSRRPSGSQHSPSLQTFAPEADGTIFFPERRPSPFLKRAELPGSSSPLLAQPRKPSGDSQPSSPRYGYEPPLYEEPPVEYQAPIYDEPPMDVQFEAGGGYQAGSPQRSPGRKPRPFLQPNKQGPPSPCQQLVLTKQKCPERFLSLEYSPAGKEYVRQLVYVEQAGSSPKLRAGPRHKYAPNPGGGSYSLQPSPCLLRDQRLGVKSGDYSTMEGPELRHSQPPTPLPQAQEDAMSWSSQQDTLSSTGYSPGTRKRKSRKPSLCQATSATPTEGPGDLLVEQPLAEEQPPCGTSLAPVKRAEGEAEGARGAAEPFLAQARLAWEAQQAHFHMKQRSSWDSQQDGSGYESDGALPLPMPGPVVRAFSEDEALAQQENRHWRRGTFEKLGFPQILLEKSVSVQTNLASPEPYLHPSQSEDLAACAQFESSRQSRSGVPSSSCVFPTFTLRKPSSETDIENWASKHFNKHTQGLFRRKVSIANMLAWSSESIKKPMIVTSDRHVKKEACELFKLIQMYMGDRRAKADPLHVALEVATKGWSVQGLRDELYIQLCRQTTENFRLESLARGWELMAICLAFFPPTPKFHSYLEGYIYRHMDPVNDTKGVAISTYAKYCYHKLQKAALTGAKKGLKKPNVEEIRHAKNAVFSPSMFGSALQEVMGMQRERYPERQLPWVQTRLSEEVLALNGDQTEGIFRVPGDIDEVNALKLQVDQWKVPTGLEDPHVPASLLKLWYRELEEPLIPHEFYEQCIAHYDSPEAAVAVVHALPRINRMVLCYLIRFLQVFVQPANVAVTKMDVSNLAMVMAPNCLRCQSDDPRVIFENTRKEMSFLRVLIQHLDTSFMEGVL
UniProt O43150: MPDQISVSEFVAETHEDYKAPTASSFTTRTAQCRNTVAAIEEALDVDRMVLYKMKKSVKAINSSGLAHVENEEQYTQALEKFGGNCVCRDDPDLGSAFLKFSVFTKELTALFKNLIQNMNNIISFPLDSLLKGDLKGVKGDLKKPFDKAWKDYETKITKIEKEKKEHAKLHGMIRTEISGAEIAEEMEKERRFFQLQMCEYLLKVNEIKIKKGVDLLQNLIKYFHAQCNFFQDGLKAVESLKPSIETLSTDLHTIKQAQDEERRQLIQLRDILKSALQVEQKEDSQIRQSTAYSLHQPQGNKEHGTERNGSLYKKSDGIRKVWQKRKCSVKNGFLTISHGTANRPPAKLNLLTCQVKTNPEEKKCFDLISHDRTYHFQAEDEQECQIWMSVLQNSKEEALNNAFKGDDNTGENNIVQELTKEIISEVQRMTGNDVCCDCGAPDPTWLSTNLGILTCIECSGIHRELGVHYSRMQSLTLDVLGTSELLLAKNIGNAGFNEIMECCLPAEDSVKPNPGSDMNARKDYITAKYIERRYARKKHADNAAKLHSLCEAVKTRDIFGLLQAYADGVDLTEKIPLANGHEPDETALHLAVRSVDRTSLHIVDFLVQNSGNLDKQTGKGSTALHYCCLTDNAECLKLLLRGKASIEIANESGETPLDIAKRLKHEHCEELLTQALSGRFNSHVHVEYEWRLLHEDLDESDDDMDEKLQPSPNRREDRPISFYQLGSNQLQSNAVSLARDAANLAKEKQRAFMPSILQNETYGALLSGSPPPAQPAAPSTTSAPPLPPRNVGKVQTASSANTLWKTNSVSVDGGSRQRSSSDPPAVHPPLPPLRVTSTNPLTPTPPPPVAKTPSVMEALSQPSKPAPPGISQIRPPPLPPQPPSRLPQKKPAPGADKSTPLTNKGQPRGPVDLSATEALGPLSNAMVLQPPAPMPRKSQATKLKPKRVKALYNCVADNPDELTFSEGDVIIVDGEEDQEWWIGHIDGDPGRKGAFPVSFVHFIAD
UniProt Q9H792: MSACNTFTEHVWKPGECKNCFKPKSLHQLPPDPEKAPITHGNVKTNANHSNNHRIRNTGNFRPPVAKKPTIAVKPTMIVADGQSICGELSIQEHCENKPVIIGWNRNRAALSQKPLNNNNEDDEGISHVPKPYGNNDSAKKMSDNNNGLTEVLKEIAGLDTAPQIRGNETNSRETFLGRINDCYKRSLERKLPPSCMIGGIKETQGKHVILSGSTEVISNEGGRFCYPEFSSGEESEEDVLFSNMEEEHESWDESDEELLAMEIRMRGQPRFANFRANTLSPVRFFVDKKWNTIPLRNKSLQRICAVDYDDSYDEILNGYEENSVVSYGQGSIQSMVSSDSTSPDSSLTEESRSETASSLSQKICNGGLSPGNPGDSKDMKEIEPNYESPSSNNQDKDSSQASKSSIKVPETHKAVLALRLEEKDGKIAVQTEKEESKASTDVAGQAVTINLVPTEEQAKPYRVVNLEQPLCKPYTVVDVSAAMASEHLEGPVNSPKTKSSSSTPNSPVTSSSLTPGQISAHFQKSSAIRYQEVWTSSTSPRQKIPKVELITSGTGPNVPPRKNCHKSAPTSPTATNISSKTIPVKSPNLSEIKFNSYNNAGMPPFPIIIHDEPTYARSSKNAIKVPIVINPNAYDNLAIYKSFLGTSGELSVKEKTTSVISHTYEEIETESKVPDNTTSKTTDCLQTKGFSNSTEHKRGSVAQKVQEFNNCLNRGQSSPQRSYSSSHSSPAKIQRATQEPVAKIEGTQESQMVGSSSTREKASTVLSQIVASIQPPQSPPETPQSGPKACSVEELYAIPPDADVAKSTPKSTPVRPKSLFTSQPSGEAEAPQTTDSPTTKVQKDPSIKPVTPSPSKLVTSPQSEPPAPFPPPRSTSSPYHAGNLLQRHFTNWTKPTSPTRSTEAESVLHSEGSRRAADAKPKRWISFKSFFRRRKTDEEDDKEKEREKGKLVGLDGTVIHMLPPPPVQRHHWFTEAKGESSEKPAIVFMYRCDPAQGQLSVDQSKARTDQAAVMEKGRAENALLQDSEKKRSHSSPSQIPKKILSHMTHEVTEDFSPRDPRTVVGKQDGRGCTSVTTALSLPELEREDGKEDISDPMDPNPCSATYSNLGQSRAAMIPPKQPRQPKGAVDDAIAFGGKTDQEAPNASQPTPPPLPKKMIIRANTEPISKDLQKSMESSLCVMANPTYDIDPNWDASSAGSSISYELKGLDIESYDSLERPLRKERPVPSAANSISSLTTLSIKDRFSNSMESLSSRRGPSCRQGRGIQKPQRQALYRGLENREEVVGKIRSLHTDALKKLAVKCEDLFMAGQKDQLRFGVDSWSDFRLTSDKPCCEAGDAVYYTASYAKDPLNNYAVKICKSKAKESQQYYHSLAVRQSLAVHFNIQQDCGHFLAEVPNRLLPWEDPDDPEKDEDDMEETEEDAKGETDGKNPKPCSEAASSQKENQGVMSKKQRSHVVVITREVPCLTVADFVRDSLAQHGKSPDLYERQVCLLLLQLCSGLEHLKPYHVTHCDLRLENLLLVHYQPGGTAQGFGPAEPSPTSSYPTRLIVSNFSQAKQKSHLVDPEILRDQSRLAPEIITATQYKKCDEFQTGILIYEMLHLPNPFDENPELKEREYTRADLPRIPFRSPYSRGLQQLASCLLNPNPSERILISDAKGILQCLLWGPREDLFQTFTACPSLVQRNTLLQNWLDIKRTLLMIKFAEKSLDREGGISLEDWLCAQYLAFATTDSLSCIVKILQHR

[2] = biological target: ARHGAP39 (bait of the interactome screen) (human) (UniProt Q9C0H5)
[3] = biological target: T2, ARHGEF10L (not stated (library cDNAs: human, mouse, rat or chimpanzee; Table S1)) (UniProt Q9HCE6)
T2 sequence: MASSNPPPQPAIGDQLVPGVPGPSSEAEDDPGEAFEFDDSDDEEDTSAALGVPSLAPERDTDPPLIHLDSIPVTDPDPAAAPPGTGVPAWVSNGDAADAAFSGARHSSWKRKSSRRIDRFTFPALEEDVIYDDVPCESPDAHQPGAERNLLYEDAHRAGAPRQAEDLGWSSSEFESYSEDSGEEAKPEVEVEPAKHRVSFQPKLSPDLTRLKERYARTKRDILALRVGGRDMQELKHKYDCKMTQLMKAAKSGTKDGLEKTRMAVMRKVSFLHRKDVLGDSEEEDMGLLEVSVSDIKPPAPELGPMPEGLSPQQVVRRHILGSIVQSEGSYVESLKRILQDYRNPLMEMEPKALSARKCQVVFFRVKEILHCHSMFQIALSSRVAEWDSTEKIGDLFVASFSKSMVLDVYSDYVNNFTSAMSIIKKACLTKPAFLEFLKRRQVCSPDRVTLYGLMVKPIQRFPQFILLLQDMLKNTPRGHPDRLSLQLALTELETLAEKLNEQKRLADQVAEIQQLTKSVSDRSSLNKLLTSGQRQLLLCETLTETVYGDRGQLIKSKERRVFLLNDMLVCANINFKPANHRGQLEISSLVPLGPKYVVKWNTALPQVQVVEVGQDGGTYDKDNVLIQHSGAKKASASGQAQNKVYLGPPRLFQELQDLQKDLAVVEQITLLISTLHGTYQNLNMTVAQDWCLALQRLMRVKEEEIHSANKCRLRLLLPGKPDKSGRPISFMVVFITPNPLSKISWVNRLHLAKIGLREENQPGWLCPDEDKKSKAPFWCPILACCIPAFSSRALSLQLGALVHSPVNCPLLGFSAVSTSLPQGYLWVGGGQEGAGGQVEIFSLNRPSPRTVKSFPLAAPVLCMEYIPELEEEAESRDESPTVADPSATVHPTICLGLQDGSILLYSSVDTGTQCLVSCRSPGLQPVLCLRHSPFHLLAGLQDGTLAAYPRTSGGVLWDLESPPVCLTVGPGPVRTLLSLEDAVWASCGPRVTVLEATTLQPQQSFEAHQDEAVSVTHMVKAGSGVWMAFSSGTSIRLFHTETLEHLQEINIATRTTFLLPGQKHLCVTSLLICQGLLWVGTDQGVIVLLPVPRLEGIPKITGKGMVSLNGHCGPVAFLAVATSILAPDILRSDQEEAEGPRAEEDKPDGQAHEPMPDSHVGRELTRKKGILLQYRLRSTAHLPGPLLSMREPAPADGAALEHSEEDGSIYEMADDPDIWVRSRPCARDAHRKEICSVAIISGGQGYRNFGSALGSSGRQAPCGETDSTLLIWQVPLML

Molecule: ASAP2 (from UniProt O43150 1-1006)
- binding [1]: binds

Molecule: PEAK1 (prey of the interactome screen) (from UniProt Q9H792 1-1746)
- binding [2]: binds

B1: ARHGEF10 (protein, UniProt O15013 1-1369)
chain: MRPPGFLSRAPSLNRAERGIWSCSMDQREPLPPAPAENEMKYDTNNNEEEEGEQFDFDSGDEIPEADRQAPSAPETGGAGASEAPAPTGGEDGAGAETTPVAEPTKLVLPMKVNPYSVIDITPFQEDQPPTPVPSAEEENVGLHVPCGYLVPVPCGYAVPSNLPLLLPAYSSPVIICATSLDEEAETPEVTEDRQPNSLSSEEPPTSEDQVGREDSALARWAADPANTAWMENPEEAIYDDVPRENSDSEPDEMIYDDVENGDEGGNSSLEYGWSSSEFESYEEQSDSECKNGIPRSFLRSNHKKQLSHDLTRLKEHYEKKMRDLMASTVGVVEIQQLRQKHELKMQKLVKAAKDGTKDGLERTRAAVKRGRSFIRTKSLIAQDHRSSLEEEQNLFIDVDCKHPEAILTPMPEGLSQQQVVRRYILGSVVDSEKNYVDALKRILEQYEKPLSEMEPKVLSERKLKTVFYRVKEILQCHSLFQIALASRVSEWDSVEMIGDVFVASFSKSMVLDAYSEYVNNFSTAVAVLKKTCATKPAFLEFLKQEQEASPDRTTLYSLMMKPIQRFPQFILLLQDMLKNTSKGHPDRLPLQMALTELETLAEKLNERKRDADQRCEVKQIAKAINERYLNKLLSSGSRYLIRSDDMIETVYNDRGEIVKTKERRVFMLNDVLMCATVSSRPSHDSRVMSSQRYLLKWSVPLGHVDAIEYGSSAGTGEHSRHLAVHPPESLAVVANAKPNKVYMGPGQLYQDLQNLLHDLNVIGQITQLIGNLKGNYQNLNQSVAHDWTSGLQRLILKKEDEIRAADCCRIQLQLPGKQDKSGRPTFFTAVFNTFTPAIKESWVNSLQMAKLALEEENHMGWFCVEDDGNHIKKEKHPLLVGHMPVMVAKQQEFKIECAAYNPEPYLNNESQPDSFSTAHGFLWIGSCTHQMGQIAIVSFQNSTPKVIECFNVESRILCMLYVPVEEKRREPGAPPDPETPAVRASDVPTICVGTEEGSISIYKSSQGSKKVRLQHFFTPEKSTVMSLACTSQSLYAGLVNGAVASYARAPDGSWDSEPQKVIKLGVLPVRSLLMMEDTLWAASGGQVFIISVETHAVEGQLEAHQEEGMVISHMAVSGVGIWIAFTSGSTLRLFHTETLKHLQDINIATPVHNMLPGHQRLSVTSLLVCHGLLMVGTSLGVLVALPVPRLQGIPKVTGRGMVSYHAHNSPVKFIVLATALHEKDKDKSRDSLAPGPEPQDEDQKDALPSGGAGSSLSQGDPDAAIWLGDSLGSMTQKSDLSSSSGSLSLSHGSSSLEHRSEDSTIYDLLKDPVSLRSKARRAKKAKASSALVVCGGQGHRRVHRKARQPHQEELAPTVMVWQIPLLNI
- binding [3]: binds

Reference: article doi:10.1101/354316
